According to PubChem BioAssay AID2685 (National Center for Advancing Translational Sciences (NCATS), 2010):
The whole screen tested about 320,000 compounds, of which about 2,100 (0.66%) were called active. Inconclusive means that the source gave no clear call. Such entries were picked first, then a sample of the others. Calls follow the shape of the dose curve; as a rule, active = well fitted inhibition curve with a large enough effect in the signal ratio, with a control signal flat (not every such curve was filed as active); inconclusive = small, poorly fitted or top-dose-only effect, or effect the other way, or a change in a side signal; inactive = flat fitted curve, though single readings scatter; the % refers to the signal ratio. Potencies of inconclusive entries are doubtful fits and often do not repeat.

Assay: qHTS Assay for Lipid Storage Modulators in Drosophila S3 Cells
Conditions: BODIPY lipid droplet fluorescence, 18-24 h, cells fed with added oleic acid; lipid storage change, negative = inhibition: at 46.1 µM (top of the series) unless noted
Outline: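 Drosophila S3 cells loaded with oleic acid (400 uM, as added) and compounds at several concentrations; lipid droplets imaged by 488-nm laser-scanning cytometry, 500–530 nm intensity and object ratio to cell channel. Percent activity normalized to 20 uM Triacsin C.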
% is scaled to controls: 0 for no effect and ±100 for the full control effect; potency is read from the fitted curve at half-maximal effect.

Question: With `Cc1ccc(S(=O)(=O)N(C)C)cc1NC(=O)Cn1c(CN2CCOCC2)nc2ccccc2c1=O` as the compound, how does the lipid storage change, negative = inhibition read?
Answer: inconclusive: 88%

Question: Which Potency does the source give for `O=C(O)c1cc(S(=O)(=O)N2CC=C(c3ccccc3)CC2)ccc1O` here?
Answer: inconclusive: 0.259 µM [falling, full curve, poor fit]

Question: With `COc1ccc(Br)cc1-c1nc2c(c(=O)[nH]c(=O)n2Cc2ccccc2)n1C` as the compound, how does the Potency read?
Answer: inconclusive: 9.2 µM [activator, partial curve, poor fit]

Question: For `COc1ccccc1C(=O)NCCC(=O)N(C)Cc1ccc(C)o1`, which lipid storage change, negative = inhibition is on record?
Answer: inconclusive: -36.5%

Question: For `Cc1c(C(N)=O)c(-c2ccccc2)nn1-c1ccccc1`, which lipid storage change, negative = inhibition is on record?
Answer: inconclusive: 1.72%

Question: With `O=C(CN(C(=O)C1CSC(=O)C1)c1cccc(F)c1)NCc1ccc2c(c1)OCO2` (stereo not drawn) as the compound, how does the lipid storage change, negative = inhibition read?
Answer: inconclusive: 15.7%

Question: With `CCC(=O)c1ccc(OCC(=O)OCC(=O)Nc2ccc(C)c(S(=O)(=O)N3CCCCC3)c2)cc1` as the compound, how does the lipid storage change, negative = inhibition read?
Answer: inconclusive: 78.8%

Question: For `CCOC(=O)c1cc(CC)sc1N1C(=O)CC(Sc2ccccc2C(=O)O)C1=O` (stereo not drawn), which lipid storage change, negative = inhibition is on record?
Answer: inconclusive: 24.5%

Question: Which lipid storage change, negative = inhibition does the source give for `COc1ccc(NC(=O)CSc2nnc(NC(=O)CN3CCOCC3)s2)cc1` here?
Answer: inconclusive: -65.3%

Question: With `Cc1ccc(OCC(=O)NNC(=O)C(=O)NC(C)(C)C)cc1` as the compound, how does the Potency read?
Answer: inconclusive: 18.4 µM [activator, single point]

Question: For `O=C(/C(=C/c1ccc(Cl)cc1)c1nc2ccccc2[nH]1)c1ccccc1`, which Potency is on record?
Answer: inconclusive: 20.6 µM [falling, single point]

Question: Which lipid storage change, negative = inhibition does the source give for `Nn1c(SCC(=O)Nc2ccc3c(c2)OCO3)nncc1=O` here?
Answer: inconclusive: -14.8%

Question: With `CCN1CCN(C(=O)c2cc3cc(F)ccc3[nH]2)CC1` as the compound, how does the lipid storage change, negative = inhibition read?
Answer: inconclusive: 10.5%

Question: With `O=C(CCC(=O)c1ccccc1)NCc1cccc(C(F)(F)F)c1` as the compound, how does the lipid storage change, negative = inhibition read?
Answer: inconclusive: -19.3%

Question: For `CCCn1c(=O)c(C(=O)NCc2ccccc2OC)c(O)c2ccccc21`, which lipid storage change, negative = inhibition is on record?
Answer: inconclusive: 32.6%

Question: With `Cn1cc(C(=O)N/N=C/c2cccc(O)c2)ccc1=O` as the compound, how does the lipid storage change, negative = inhibition read?
Answer: inconclusive: 81%

Question: For `N#CC(C#N)=CN=c1ccn(Cc2ccc(Cl)cc2Cl)cc1`, which Potency is on record?
Answer: inconclusive: 0.013 µM [falling, full curve, poor fit]

Question: For `Cc1cc2cc(CN(Cc3cccs3)C(=S)NCc3ccco3)c(=O)[nH]c2cc1C`, which lipid storage change, negative = inhibition is on record?
Answer: inconclusive: 26.4%

Question: For `O=C(NC1CCCc2ccccc21)c1cc(Cl)ccn1` (stereo not drawn), which lipid storage change, negative = inhibition is on record?
Answer: inconclusive: -4.53%

Question: Which Potency does the source give for `CC(C)CN1CCN(C2CCN(C(C)C)CC2)C(CCO)C1` (stereo not drawn) here?
Answer: inconclusive: 2.06 µM [falling, partial curve, poor fit]

Question: With `COc1cccc(NC(=O)CN(C)C(C)C(=O)Nc2ccc(S(=O)(=O)N3CCCC3)cc2)c1` (stereo not drawn) as the compound, how does the lipid storage change, negative = inhibition read?
Answer: inconclusive: -40.5%

Question: With `CCOC(=O)C1CCCN(C(=O)c2cccc(S(=O)(=O)N3CCOCC3)c2)C1` (stereo not drawn) as the compound, how does the lipid storage change, negative = inhibition read?
Answer: inconclusive: 12.6%

Question: With `C=CCN1C(=O)c2ccc(C(=O)N3CCN(S(=O)(=O)c4cccc([N+](=O)[O-])c4)CC3)cc2C1=O` as the compound, how does the Potency read?
Answer: inconclusive: 29.1 µM [activator, single point]

Question: For `CCOC(=O)C1CCCN(C(=O)c2ccccc2NC(=O)C2=C(C)OCCS2)C1` (stereo not drawn), which lipid storage change, negative = inhibition is on record?
Answer: inconclusive: 24.4%

Question: With `CCOc1nnc(C)c2c(C)n(-c3ccc(Cl)cc3)nc12` as the compound, how does the lipid storage change, negative = inhibition read?
Answer: inconclusive: -15.5%

Question: For `O=C1S/C(=C\c2ccccc2)C(=O)N1CC(O)Cn1c2ccccc2c2ccccc21` (stereo not drawn), which Potency is on record?
Answer: active: 9.2 µM

Question: With `CC(C)(C)c1nnc(NC(=O)C2CCN(c3ncccn3)CC2)s1` as the compound, how does the lipid storage change, negative = inhibition read?
Answer: inconclusive: 63.1%

Question: For `CCC(=O)c1ccccc1OCCCCn1cncn1`, which Potency is on record?
Answer: inconclusive: 9.2 µM [activator, partial curve, poor fit]

Question: Which lipid storage change, negative = inhibition does the source give for `CC(C)Nc1nc(Cl)nc(NNC(=O)C(C)Oc2ccccc2)n1` (stereo not drawn) here?
Answer: inconclusive: -9.93%

Question: With `CCc1ccc(C(=O)C(C)OC(=O)C2COc3ccccc3O2)cc1` (stereo not drawn) as the compound, how does the lipid storage change, negative = inhibition read?
Answer: inconclusive: -34.3%

Question: With `C=CCC(=O)N1CCC(n2nccc2NC(=O)CCOc2ccccc2)CC1` as the compound, how does the lipid storage change, negative = inhibition read?
Answer: inconclusive: -26.5%

Question: Which lipid storage change, negative = inhibition does the source give for `COC(=O)C1=C(C(=O)OC)[C@@H]2N(C)c3ccc(OC)cc3[C@@]23C[C@@H](C(=O)OC)N(S(=O)(=O)c2ccc([N+](=O)[O-])cc2)C3=N1` here?
Answer: inconclusive: 7.83%

Question: With `COc1ccccc1C(=O)Nc1ccc2c(C)cc(=O)oc2c1` as the compound, how does the lipid storage change, negative = inhibition read?
Answer: inconclusive: -68.4%

Question: For `Cc1ccc(NC(=O)Cc2cccs2)cc1Cl`, which lipid storage change, negative = inhibition is on record?
Answer: inconclusive: -1.58%

Question: For `COc1ccc(NC(=O)COC(=O)Cn2nnc3ccccc32)cc1`, which lipid storage change, negative = inhibition is on record?
Answer: inconclusive: -18.8%

Question: For `CCn1c2ccccc2c2cc(NC(=O)COc3ccccc3OC)ccc21`, which lipid storage change, negative = inhibition is on record?
Answer: inconclusive: -87.7%

Question: For `Cc1cc(C)[n+](C)n1CC(O)Cn1c2ccccc2c2ccccc21` (stereo not drawn), which lipid storage change, negative = inhibition is on record?
Answer: inconclusive: -8.69%

Question: With `Cc1cccc(-n2nc(C(=O)c3ccco3)cc(-c3nc4ccccc4[nH]3)c2=N)c1` as the compound, how does the Potency read?
Answer: inconclusive: 4.61 µM [cytotoxic, full curve]

Question: With `Cc1ccc(Cl)cc1NC(=O)COC(=O)CN1C(=O)C2CCCCC2C1=O` (stereo not drawn) as the compound, how does the lipid storage change, negative = inhibition read?
Answer: inconclusive: -82%

Question: For `CN(Cc1ccc(Cl)cc1Cl)C(=O)CN1C(=O)NC2(CCCC2)C1=O`, which Potency is on record?
Answer: inconclusive: 0.082 µM [activator, full curve, poor fit]

Question: For `CN(Cc1c(C(=O)N/N=C/c2ccccc2)nnn1-c1nonc1N)c1ccccc1`, which Potency is on record?
Answer: active: 4.61 µM

Question: Which lipid storage change, negative = inhibition does the source give for `COc1ccc(-n2c(C)cc(C)c(C(C)=O)c2=S)cc1` here?
Answer: inconclusive: -6.09%

Question: Which lipid storage change, negative = inhibition does the source give for `O=C(COC(=O)C1CCN(S(=O)(=O)c2ccc3c(c2)OCCO3)CC1)NC1CCS(=O)(=O)C1` (stereo not drawn) here?
Answer: inconclusive: 10.3%

Question: For `COc1ccc(OC(=O)c2cn(C)nc2C(F)(F)F)cc1`, which Potency is on record?
Answer: inconclusive: 2.31 µM [falling, single point]

Question: Which lipid storage change, negative = inhibition does the source give for `CCOc1ccc(OCCSc2nc3ccccc3o2)cc1` here?
Answer: inconclusive: 156%

Question: For `O=C(O)c1cc(NN=C2CCN(Cc3ccccc3)CC2)ccc1Cl`, which lipid storage change, negative = inhibition is on record?
Answer: inconclusive: 12%

Question: With `O=C(Nc1nc2ccccc2[nH]1)Nc1ccccc1F` as the compound, how does the Potency read?
Answer: inconclusive: 6.51 µM [activator, single point]

Question: Which lipid storage change, negative = inhibition does the source give for `O=C(NCc1ccco1)c1csc(Nc2ccccc2Cl)n1` here?
Answer: inconclusive: 24.5%

Question: Which lipid storage change, negative = inhibition does the source give for `Cc1ccc(OCCNC(=O)c2ccc(C)cc2)cc1` here?
Answer: inconclusive: 23.1%

Question: Which Potency does the source give for `COc1ccc(N(C)S(=O)(=O)c2cccc(C(=O)Nc3nc4ccccc4[nH]3)c2)cc1` here?
Answer: inconclusive: 0.116 µM [activator, full curve, poor fit]

Question: For `CCCn1c(C)cc(C(=O)COC(=O)c2ccc[nH]c2=O)c1C`, which lipid storage change, negative = inhibition is on record?
Answer: inconclusive: 3.85%

Question: Which lipid storage change, negative = inhibition does the source give for `CCCCC(=O)Nc1ccc(N2CCN(C(=O)c3ccco3)CC2)cc1` here?
Answer: inconclusive: 29.4%

Question: For `CN(C)S(=O)(=O)N1CCC(CCCC2CCN(S(=O)(=O)N(C)C)CC2)CC1`, which lipid storage change, negative = inhibition is on record?
Answer: inconclusive: -0.246%

Question: With `Cc1csc(NC(=O)NC2(C(F)(F)F)Oc3ccccc3O2)n1` as the compound, how does the Potency read?
Answer: inconclusive: 0.116 µM [falling, full curve, poor fit]

Question: With `O=C(/C=C/c1ccccc1)c1ccccc1` as the compound, how does the lipid storage change, negative = inhibition read?
Answer: inconclusive: -2.99%

Question: For `Nc1cnc(CNc2ccccc2Cl)cn1`, which lipid storage change, negative = inhibition is on record?
Answer: inconclusive: -0.681%

Question: With `O=C1/C(=C/c2ccc(O)c([N+](=O)[O-])c2)SC(=S)N1Cc1ccccc1` as the compound, how does the lipid storage change, negative = inhibition read?
Answer: inconclusive: -21.1%

Question: Which Potency does the source give for `O=C(O)CCCn1cc(NC(=O)COc2cccc(Cl)c2)cn1` here?
Answer: inconclusive: 29.1 µM [activator, single point]

Question: For `CCCn1nnnc1SCC(=O)NCc1ccc(OC)cc1`, which lipid storage change, negative = inhibition is on record?
Answer: inconclusive: -41.9%

Question: Which lipid storage change, negative = inhibition does the source give for `Cc1ccccc1N1C(=O)c2ccccc2C1Nc1cccnc1` (stereo not drawn) here?
Answer: inconclusive: 79.8%

Question: For `O=C(CCCl)Nc1nnc(SCC(=O)NC2CCCC2)s1`, which Potency is on record?
Answer: inconclusive: 25.9 µM [falling, single point]

Question: Which lipid storage change, negative = inhibition does the source give for `COc1ccc(/C=C/C(=O)NC(=S)Nc2ccc(C(=O)O)cc2)cc1` here?
Answer: inconclusive: -40.8%

Question: Which lipid storage change, negative = inhibition does the source give for `CCCCC1(C)OC(=O)C(=Cc2ccc(N(C)C)cc2)C(=O)O1` (stereo not drawn) here?
Answer: inconclusive: -3.97%

Question: For `CC(C)(CNC(=O)Cc1ccc(Cl)cc1Cl)N1CCOCC1`, which Potency is on record?
Answer: inconclusive: 23.1 µM [activator, partial curve, poor fit]

Question: For `CCOC(=O)c1ccc(NC(=S)N2CCC(O)CC2)cc1`, which lipid storage change, negative = inhibition is on record?
Answer: inconclusive: 16.1%

Question: For `CC1(C)C(N(O)C(=O)Nc2ccccc2)N(c2cccc(Cl)c2)C(=O)N1O` (stereo not drawn), which lipid storage change, negative = inhibition is on record?
Answer: inconclusive: 4.78%

Question: Which Potency does the source give for `N#CCCN1CCN(Cn2c3ccccc3c3ccccc32)CC1` here?
Answer: inconclusive: 29.1 µM [activator, single point]

Question: Which lipid storage change, negative = inhibition does the source give for `Cc1coc(C)c1C(=O)CC1(O)C(=O)N(Cc2ccccc2)c2ccccc21` (stereo not drawn) here?
Answer: inconclusive: 4.81%

Question: For `O=C(Cc1ccsc1)NCc1ccccc1F`, which Potency is on record?
Answer: inconclusive: 0.58 µM [activator, single point]

Question: For `CNc1ccccc1C(C)(C)c1cc(-c2cc(C)cc(C)c2)no1`, which lipid storage change, negative = inhibition is on record?
Answer: inconclusive: -21.3%

Question: With `CCCCN1C2CCCC1CC(NC(=O)c1cccc(Cl)c1)C2` (stereo not drawn) as the compound, how does the lipid storage change, negative = inhibition read?
Answer: inactive

Question: With `CCCc1nc2sc3ccccc3c(=O)c2c(=O)n1Cc1ccco1` as the compound, how does the Potency read?
Answer: inconclusive: 1.03 µM [falling, full curve, poor fit]

Question: With `CC(=O)Nc1cccc(NC(=O)CSc2nnc3ccc(-c4ccncc4)nn23)c1` as the compound, how does the lipid storage change, negative = inhibition read?
Answer: inconclusive

Question: Which lipid storage change, negative = inhibition does the source give for `Cc1ccc(NC(=O)C(=O)NCCN2CCN(S(C)(=O)=O)CC2)cc1` here?
Answer: inconclusive: 0.314%

Question: Which Potency does the source give for `C/C(=C\c1ccccc1)C(=O)N1CCN(Cc2ccc3c(c2)OCO3)CC1` here?
Answer: inconclusive: 20.6 µM [falling, single point]

Question: Which lipid storage change, negative = inhibition does the source give for `O=c1cc(CN2CCN(c3ccc(F)cc3)CC2)nc2sccn12` here?
Answer: inconclusive: 50.3%

Question: For `Cc1cc(=O)n2nc(N3CCC(C(=O)NCC(C)c4ccccc4)CC3)sc2n1` (stereo not drawn), which lipid storage change, negative = inhibition is on record?
Answer: inconclusive: 75.8%

Question: With `CCC(c1c(C)[nH]oc1=O)c1c(C)[nH]oc1=O` as the compound, how does the Potency read?
Answer: inconclusive: 0.651 µM [falling, full curve]
